Assay results reported in US10774098B2, “Nahlsgen optical resolution method” (KYOTO UNIVERSITY, priority 2016, dated 2020).

Test system: normal human epidermal cells
Test: protein content in the disrupted cell suspension (BCA Protein Assay)
Type: cell-based
Conditions: Conc. 10.00 μmol/L, cultivation for 24 hours

Compound: COP(=O)(CC[C@H](N)C(=O)O)Oc1cccc(CC(=O)O)c1 (mixture of isomers) [Nahlsgen, DL-2-amino-4-[(RSp)-(3-carboxymethylphenoxy)(methoxy)phosphoryl]butanoic acid]
- Protein (μg/well) Mean: 13.9 μg/well
